In article PMC9569985:
No constants are given. Whether binding was seen depends on the method and setting. Binding seen in cells or lysates may run through a third protein. Some binding calls cover weakened binding; strength is not graded here. Where a sequence is shown, tags or fusion partners need not be part of it.

The chains behind the UniProt entries cited, without tags or fusion partners.
UniProt Q9R012: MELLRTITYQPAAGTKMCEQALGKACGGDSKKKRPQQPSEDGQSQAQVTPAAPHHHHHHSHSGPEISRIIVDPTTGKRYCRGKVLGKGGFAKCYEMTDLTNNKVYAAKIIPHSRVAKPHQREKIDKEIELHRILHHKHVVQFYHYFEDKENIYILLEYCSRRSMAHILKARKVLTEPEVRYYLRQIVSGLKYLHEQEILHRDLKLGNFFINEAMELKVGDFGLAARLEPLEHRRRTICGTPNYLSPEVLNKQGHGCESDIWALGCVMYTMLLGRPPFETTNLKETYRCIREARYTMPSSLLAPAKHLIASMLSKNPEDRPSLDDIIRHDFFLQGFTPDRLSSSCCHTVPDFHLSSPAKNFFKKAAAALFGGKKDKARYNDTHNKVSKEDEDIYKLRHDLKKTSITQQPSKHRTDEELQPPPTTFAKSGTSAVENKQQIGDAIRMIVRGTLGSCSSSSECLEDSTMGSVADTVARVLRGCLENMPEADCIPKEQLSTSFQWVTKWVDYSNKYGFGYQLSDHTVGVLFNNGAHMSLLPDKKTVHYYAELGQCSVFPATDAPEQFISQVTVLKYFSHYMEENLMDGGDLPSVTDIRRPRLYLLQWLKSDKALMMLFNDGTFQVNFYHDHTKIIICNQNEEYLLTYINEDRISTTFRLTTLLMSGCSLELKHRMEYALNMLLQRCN

Target: T1, FLAG-HSPB5 (UniProt P23927)
T1 sequence: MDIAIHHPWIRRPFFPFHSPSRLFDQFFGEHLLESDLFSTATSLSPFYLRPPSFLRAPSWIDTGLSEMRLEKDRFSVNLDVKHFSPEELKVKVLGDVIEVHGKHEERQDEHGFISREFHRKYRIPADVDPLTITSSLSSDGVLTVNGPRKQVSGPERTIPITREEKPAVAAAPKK
Test: co-IP; FLAG-HSPB5 overexpressed in L6 cells, 5 µM MG132 for 24 h; lysate (50 mM Tris-HCl pH 7.5, 150 mM NaCl, 0.5% Nonidet-P40) immunoprecipitated with anti-tag antibody-conjugated beads, Western blot for endogenous PLK2; the paper calls it a pull-down assay

binding: binds
Substance: Endogenous PLK2 of L6 cells (from UniProt Q9R012 1-682) (enzyme)
